Among all 400,000 compounds or so, about 13,000 (3.2%) were called active. The shares of active, inactive and inconclusive entries below differ from those in the screen. The call rests on the fitted dose curve; in most records, active means well fitted cell-killing curve with a large enough effect; inconclusive means small, poorly fitted or top-dose-only effect, or effect the other way; inactive means flat fitted curve, though single readings scatter. Potencies of inconclusive entries are doubtful fits and often do not repeat.
assay: qHTS assay for MDR1-selective chemotherapeutics: Primary screen using the drug-selected MDR subline cells KB-V1; details: KB-V1 MDR cells viability, CellTiter-Glo, 72 h; activity change, negative = cytotoxicity: at 46.1 µM (top of the series); further: nearly all actives have a fitted effect of over 60% in size
Outline: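 In this primary screen, KB-V1 cells overexpressing P-gp are incubated with library compounds (lowest to highest concentration) for 72 h at 37 degrees C before a luminescent ATP viability read.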
On the % scale 0 is the no-effect control and ±100 the full control effect; potency means the concentration at half of the fitted maximal effect.

| SMILES | Potency | activity change, negative = cytotoxicity |
| --- | --- | --- |
| Cc1[nH]c(=S)c(C#N)c2c1CCCC2 | inactive | – |
| O=C(Nc1cccc(NC(=O)c2ccco2)c1)c1ccc2c(c1)OCO2 | active: 12.6 µM | – |
| CN(C)/N=C/c1ccc(/C=N/NC(N)=S)o1 | inactive | – |
| CCN(CC)S(=O)(=O)c1ccc2oc(C(=O)NCCN3CCOCC3)c(C)c2c1 | inconclusive: 18.4 µM [cytotoxic, single point] | – |
| COCCn1c(SCC(=O)c2ccc(Cl)cc2)nnc1C(C)C | inactive | – |
| O=C(NCCc1nc2ccccc2[nH]1)c1cccc(Br)c1 | inconclusive: 16.4 µM [cytotoxic, single point] | – |
| Cc1ccc(N2CCN(C(=O)c3noc4c3COc3ccc(C)cc3-4)CC2)c(C)c1 | inconclusive: 32.6 µM [cytotoxic, single point] | – |
| CC1CCN(c2c([N+](=O)[O-])c(=O)oc3ccccc23)CC1 | inconclusive: 1.3 µM [rising, full curve] | – |
| O=C(Nc1nc2ccccc2n1CCN1CCOCC1)c1ccc(Cl)cc1 | inconclusive: 6.51 µM [cytotoxic, partial curve] | – |
| Cc1ccc(CN(C(=O)COc2ccc(Br)cc2)c2ccccn2)o1 | inconclusive: 18.4 µM [rising, single point] | – |
| CCN(CC(=O)Nc1ccccc1C(F)(F)F)C(=O)COc1cccc2c1OC(C)(C)C2 | inconclusive: 11.6 µM [cytotoxic, partial curve] | – |
| CCn1c(C)c(C)c2cc(C(=O)N3CCc4ccccc4C3)ccc21 | inconclusive: 29.1 µM [cytotoxic, single point] | – |
| CC(OC(=O)c1cccnc1Cl)C(=O)Nc1ccc2c(c1)OCCO2 (stereo unspecified) | inactive | – |
| CCCCCn1c(=N)n(CC(O)COc2cccc(C)c2)c2ccccc21 (stereo unspecified) | inconclusive: 25.9 µM [cytotoxic, single point] | – |
| COC(=O)c1ccc(OCC2c3cc(OC)c(OC)cc3CCN2C(=O)c2ccccc2F)cc1 (stereo unspecified) | inactive | – |
| CC(C)OC1(c2ccccc2)OC(=O)c2ccccc21 (stereo unspecified) | inconclusive: 7.31 µM [rising, partial curve] | – |
| COc1ccc(S(=O)(=O)N2CCN(CC(=O)Nc3ccc(C)c(F)c3)CC2)cc1 | active: 6.51 µM | – |
| Cc1ccc(S(=O)(=O)N2CCCN(C)CC2)cc1 | inactive | – |
| Cc1ccc(-c2ccc(/C=N\NC(=O)c3cc4c(ccc5ccccc54)o3)o2)cc1[N+](=O)[O-] | inconclusive: 29.1 µM [cytotoxic, single point] | – |
| CN1CCN([C@@H]2CS(=O)(=O)N[C@H]2COCc2ccccc2)CC1 | inactive | – |
| COc1ccc(C(=O)Nc2ncc3c(n2)-c2ccccc2CC3)cc1 | active: 13 µM | – |
| CCn1c(Cc2ccc(OC)cc2)nnc1SCC(=O)Nc1cccc(C(=O)OC)c1 | active: 5.17 µM | – |
| CCOc1ccc(N(CC(=O)NC(C)CC)S(C)(=O)=O)cc1 (stereo unspecified) | inconclusive: 18.4 µM [cytotoxic, single point] | – |
| Cc1ccc(CNC(=O)c2c(-c3ccccc3Cl)noc2C)cc1 | inactive | – |
| NC(=O)N/N=C/c1cn(-c2ccccc2)nc1-c1cccnc1 | inactive | – |

| SMILES | Potency | activity change, negative = cytotoxicity |
| --- | --- | --- |
| O=C(NCc1ccc(F)cc1)C1CCCN(C(=O)NCc2ccccc2)C1 (stereo unspecified) | inconclusive: 14.6 µM [cytotoxic, partial curve, poor fit] | – |
| CC(C)(C)c1ccc(-c2nnc(SCCC#N)n2C2CCCC2)cc1 | inconclusive: 9.2 µM [cytotoxic, partial curve, poor fit] | – |
| c1ccc(COc2ccc(Oc3nc(N4CCCCC4)nc(N4CCOCC4)n3)nn2)cc1 | inconclusive: 0.411 µM [cytotoxic, full curve] | – |
| COc1ccccc1-c1ncn(Cc2cccc(-c3ccccc3)c2)c1-c1cc(C)cc(C)c1 | active: 16.4 µM | – |
| O=C(CN1C(=O)NC2(CCSC2)C1=O)NCc1ccccc1 (stereo unspecified) | inconclusive: 23.1 µM [rising, single point] | – |
| O=C(c1ccc(S(=O)(=O)Nc2ccccc2)cc1)N1CCCC(C(F)(F)F)C1 (stereo unspecified) | inactive | – |
| COc1cccc(NC(=O)COC(=O)CNC(=O)C2CCCCC2)c1 | inconclusive: 29.1 µM [rising, single point] | – |
| COc1cc(C2CC(c3cccs3)=NN2C(=O)CCl)ccc1OC(F)F (stereo unspecified) | active: 14.6 µM | – |
| COc1ccc(C[C@@H]2C(=O)N[C@H](C)C(=O)N(C)[C@@H]3Cc4ccc(cc4)Oc4cc(ccc4O)C[C@H](C(=O)N[C@@H](C)C(=O)N[C@H](C)C(=O)N2C)N(C)C3=O)cc1 | inactive | – |
| COc1ccccc1OC(=O)c1cc2ccccc2oc1=O | inconclusive: 29.1 µM [rising, single point] | – |
| COc1cccc(-c2cc(NC(C)=O)c3ncc(-c4ccc(OC)c(OC)c4)n3c2)c1 | inactive | – |
| Cc1cc(C)cc(N2C(=O)C3NN=C(C(=O)OCc4ccccc4)C3C2=O)c1 (stereo unspecified) | inconclusive: 8.2 µM [rising, partial curve, poor fit] | – |
| O=C(CNS(=O)(=O)c1ccccc1)NCc1ccccn1 | inactive | – |
| O=C(Nc1nnc(S(=O)(=O)N2CCOCC2)s1)c1ccc(F)cc1 | inconclusive: 23.1 µM [rising, single point] | – |
| CC1CN(CC(O)COC(c2ccccc2)c2ccccc2)CC(C)O1 (stereo unspecified) | active: 20.6 µM | – |
| COCCNC(=O)C(=O)c1cc(C)n(-c2ccc([N+](=O)[O-])cc2)c1C | inactive | – |
| CCN(CC)C(=O)c1ccc(COc2ccccc2Cl)cc1 | inconclusive: 20.6 µM [cytotoxic, single point] | – |
| CC(=O)Nc1ccc(S(=O)(=O)N[C@@H](C)C(=O)NC2CCCc3ccccc32)cc1 (stereo partly specified) | inactive | – |
| O=C1CC(NNc2ccccc2)C(=O)N1c1ccccc1 (stereo unspecified) | inactive | – |
| Cc1cc(Br)ccc1Nc1nc(N)nc(N)c1N=O | inconclusive: 16.4 µM [cytotoxic, single point] | – |
| Cn1c(=O)oc2cc(S(=O)(=O)Nc3ccc(O)cc3)ccc21 | inconclusive: 29.1 µM [rising, single point] | – |
| O=C(Nc1cccc(S(=O)(=O)N2CCCCC2)c1)c1cnccn1 | inconclusive: 20.6 µM [cytotoxic, single point] | – |
| Clc1ccc2c(NNc3ccccc3Cl)ccnc2c1 | inactive | – |
| CCOc1ccccc1N1CCN(C(=O)c2cc3c(C)cc(C)cc3[nH]2)CC1 | active: 23.1 µM | – |
| COc1cc(/C=N/NC(=O)c2cccc(S(=O)(=O)N3CCOCC3)c2)cc(OC)c1O | inactive | – |

Look-ups from the results shown:
Potency, `Cc1cc(C)cc(N2C(=O)C3NN=C(C(=O)OCc4ccccc4)C3C2=O)c1` (stereo unspecified) is entered as inconclusive: 8.2 µM [rising, partial curve, poor fit]
Potency, `O=C(CN1C(=O)NC2(CCSC2)C1=O)NCc1ccccc1` (stereo unspecified) is entered as inconclusive: 23.1 µM [rising, single point]
Potency, `COCCNC(=O)C(=O)c1cc(C)n(-c2ccc([N+](=O)[O-])cc2)c1C` is entered as inactive

Next part:

| SMILES | Potency | activity change, negative = cytotoxicity |
| --- | --- | --- |
| CN(C)S(=O)(=O)c1cccc(-c2nn(-c3ccccc3)cc2/C=C2\SC(=S)NC2=O)c1 | inconclusive: 29.1 µM [cytotoxic, single point] | – |
| COc1ccccc1C(=O)C1CCCN(C(=O)c2cccc(Cn3cccn3)c2)C1 (stereo unspecified) | inconclusive: 6.51 µM [cytotoxic, partial curve] | – |
| CC(=O)c1ccc(NC(=O)Nc2ncn(Cc3cccc(C)c3)n2)cc1 | active: 16.4 µM | – |
| Clc1ccc(-c2cn(-c3ccccc3)c3[n+]2CCS3)cc1 | inactive | – |
| CCc1c(-c2ccccc2F)ncn1Cc1cccc(-c2ccccc2)c1 | inconclusive: 20.6 µM [cytotoxic, single point] | – |
| CC(C(=O)Nc1nccs1)N1C(=O)C2CC=CCC2C1=O (stereo unspecified) | inconclusive: 32.6 µM [rising, partial curve, poor fit] | – |
| Cc1cc(N=Nc2ccc(C)c(N=Nc3cc(C)c(N)cc3N)c2)c(N)cc1N | inconclusive: 20.6 µM [rising, partial curve] | inconclusive: 7.76% |
| N#C/C(=C\c1cccc([N+](=O)[O-])c1)C(=O)NCc1cccnc1 | inactive | – |
| O=C(CCn1cnc2onc(-c3ccc(F)cc3)c2c1=O)N1CCN(c2cccc(Cl)c2)CC1 | inactive | – |
| COc1cc(C2C(C#N)=C(N)Oc3cc(O)ccc32)cc(OC)c1OC (stereo unspecified) | inconclusive: 29.1 µM [cytotoxic, single point] | – |
| COc1cc2c(cc1NC(=O)c1cccc([N+](=O)[O-])c1)oc1ccccc12 | inconclusive: 23.1 µM [cytotoxic, single point] | – |
| CC(C)(C)NCC(O)COc1ccccc1C(=O)CCc1ccccc1 (stereo unspecified) | inactive | – |
| Oc1c(Cl)cc(Cl)cc1C=Nc1ccc(Br)cc1 | – | inconclusive: -39.9% [cytotoxic] |
| O=C(NC1CCCCC1)c1ccc(S(=O)(=O)N2CCCCC2)cc1 | inactive | – |
| CN1CC=C2C(C#N)=C(N)C(C#N)(C#N)C(CCc3ccccc3)C2C1 (stereo unspecified) | active: 18.4 µM | – |
| COCCCn1c(=O)/c(=C\c2ccccc2OC(F)F)s/c1=C(/C#N)C(=O)NC(C)C | inactive | – |
| COc1ccccc1N1CCN(C(c2cccs2)C(C)NC(=O)c2ccncc2)CC1 (stereo unspecified) | – | inconclusive: -37.2% [cytotoxic] |
| CC1CCCC(NC(=S)Nc2ccc(SC(F)F)cc2)C1C (stereo unspecified) | active: 23.1 µM | – |
| N#C/C(=C/c1ccc(Sc2nc3ccccc3[nH]2)o1)c1cccc(F)c1 | active: 7.31 µM | – |
| Cn1c(=O)[nH]c(=O)c2c1nc(Br)n2CCOc1ccccc1 | inconclusive: 18.4 µM [cytotoxic, single point] | – |
| Clc1ccc(CN2CCC(c3nc4ccc(Cl)cc4[nH]3)CC2)cc1 | active: 20.6 µM | – |
| CC(C)NC(=O)N(C)C[C@@H]1OCc2cnnn2CCCC(=O)N([C@@H](C)CO)C[C@H]1C | inconclusive: 32.6 µM [rising, single point] | – |
| O=C(NCc1ccc(Cl)cc1Cl)C1CCN(S(=O)(=O)c2ccc3c(c2)OCCCO3)CC1 | active: 3.26 µM | – |
| CC12CCC(C(=O)C1)C1(C)CCCC(=O)C21 (stereo unspecified) | inconclusive: 29.1 µM [cytotoxic, single point] | – |
| Cc1ccc2oc3c(c(=O)c2c1)C(c1cccc(O)c1)N(CCCN1CCOCC1)C3=O (stereo unspecified) | inconclusive: 29.1 µM [cytotoxic, single point] | – |
